# Counter-ions that a name gives are not always drawn. Some of the results follow. Hit calls seldom repeat between salt and free forms of one compound.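 Kinases were expressed as nanoluciferase fusions in K562 cells and luminescence was read every 4 h between 2 and 18 h as percent of control, DMSO set to 100% and a positive control to 0%. A time point counts as decreased when the signal drops significantly (2 sigma). The hit call is the authors' own, does not follow from the count of time points alone, and its rule is not shown.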
# Amino acid sequences for entries named in this document (tags omitted). A change or cut given only in a name is not applied to a line headed by its entry.
# UniProt Q15208: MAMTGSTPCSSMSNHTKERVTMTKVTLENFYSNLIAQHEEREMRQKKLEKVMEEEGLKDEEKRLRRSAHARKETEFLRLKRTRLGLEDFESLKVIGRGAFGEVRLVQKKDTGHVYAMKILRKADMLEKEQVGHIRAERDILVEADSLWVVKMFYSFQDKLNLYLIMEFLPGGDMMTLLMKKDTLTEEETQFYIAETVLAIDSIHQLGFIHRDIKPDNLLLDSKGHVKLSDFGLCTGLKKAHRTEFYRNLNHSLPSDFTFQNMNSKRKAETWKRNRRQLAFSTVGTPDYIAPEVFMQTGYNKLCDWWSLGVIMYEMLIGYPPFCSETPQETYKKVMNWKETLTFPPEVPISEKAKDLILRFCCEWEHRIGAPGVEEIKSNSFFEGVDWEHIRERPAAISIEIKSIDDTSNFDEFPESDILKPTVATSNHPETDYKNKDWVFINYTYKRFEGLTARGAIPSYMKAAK
# UniProt P42680: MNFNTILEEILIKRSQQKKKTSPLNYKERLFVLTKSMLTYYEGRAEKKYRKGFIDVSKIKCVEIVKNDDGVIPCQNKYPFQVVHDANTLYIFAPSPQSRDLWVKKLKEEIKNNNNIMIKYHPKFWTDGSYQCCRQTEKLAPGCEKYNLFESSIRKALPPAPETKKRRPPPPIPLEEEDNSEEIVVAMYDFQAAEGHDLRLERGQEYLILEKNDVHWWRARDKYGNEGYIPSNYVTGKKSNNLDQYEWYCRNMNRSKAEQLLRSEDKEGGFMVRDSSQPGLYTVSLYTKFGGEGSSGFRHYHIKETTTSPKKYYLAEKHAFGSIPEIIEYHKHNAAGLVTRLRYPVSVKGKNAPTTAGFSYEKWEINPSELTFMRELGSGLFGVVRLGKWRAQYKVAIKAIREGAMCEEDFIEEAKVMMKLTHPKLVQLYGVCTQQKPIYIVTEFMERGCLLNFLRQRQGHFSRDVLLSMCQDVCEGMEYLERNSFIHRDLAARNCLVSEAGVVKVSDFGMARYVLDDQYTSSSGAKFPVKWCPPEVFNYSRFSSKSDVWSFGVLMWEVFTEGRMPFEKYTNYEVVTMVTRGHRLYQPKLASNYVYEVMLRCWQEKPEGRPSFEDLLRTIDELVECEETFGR
# UniProt P29597: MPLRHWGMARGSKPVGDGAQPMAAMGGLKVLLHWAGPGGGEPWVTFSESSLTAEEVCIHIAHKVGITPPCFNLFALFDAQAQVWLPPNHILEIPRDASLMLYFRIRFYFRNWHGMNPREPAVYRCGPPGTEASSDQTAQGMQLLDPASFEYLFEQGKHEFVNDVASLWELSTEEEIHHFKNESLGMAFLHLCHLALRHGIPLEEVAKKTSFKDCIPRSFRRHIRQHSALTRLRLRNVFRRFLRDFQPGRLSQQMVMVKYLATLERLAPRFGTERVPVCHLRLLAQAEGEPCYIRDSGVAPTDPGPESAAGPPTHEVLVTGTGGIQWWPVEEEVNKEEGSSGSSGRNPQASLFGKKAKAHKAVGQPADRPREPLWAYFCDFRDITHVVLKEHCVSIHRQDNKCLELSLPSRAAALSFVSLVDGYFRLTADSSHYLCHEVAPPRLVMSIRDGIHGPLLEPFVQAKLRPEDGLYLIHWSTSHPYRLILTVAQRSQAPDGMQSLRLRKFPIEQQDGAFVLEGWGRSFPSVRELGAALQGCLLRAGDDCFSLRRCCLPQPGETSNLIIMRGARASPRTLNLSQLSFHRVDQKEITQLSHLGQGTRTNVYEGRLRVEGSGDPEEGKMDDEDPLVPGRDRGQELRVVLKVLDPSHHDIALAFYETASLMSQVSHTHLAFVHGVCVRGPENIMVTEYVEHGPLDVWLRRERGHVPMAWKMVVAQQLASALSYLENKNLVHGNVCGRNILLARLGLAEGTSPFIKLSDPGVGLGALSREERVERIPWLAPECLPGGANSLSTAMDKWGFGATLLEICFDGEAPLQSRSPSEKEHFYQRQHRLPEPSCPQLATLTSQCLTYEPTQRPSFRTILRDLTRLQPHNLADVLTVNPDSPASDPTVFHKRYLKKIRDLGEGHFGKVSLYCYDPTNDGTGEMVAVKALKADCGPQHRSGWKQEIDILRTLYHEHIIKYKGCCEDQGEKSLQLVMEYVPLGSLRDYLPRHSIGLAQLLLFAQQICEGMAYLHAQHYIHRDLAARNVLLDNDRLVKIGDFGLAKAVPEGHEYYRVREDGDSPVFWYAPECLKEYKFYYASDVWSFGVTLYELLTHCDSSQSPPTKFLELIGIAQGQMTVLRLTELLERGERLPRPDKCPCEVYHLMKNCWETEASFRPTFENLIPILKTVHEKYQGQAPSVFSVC
# UniProt Q6PHR2: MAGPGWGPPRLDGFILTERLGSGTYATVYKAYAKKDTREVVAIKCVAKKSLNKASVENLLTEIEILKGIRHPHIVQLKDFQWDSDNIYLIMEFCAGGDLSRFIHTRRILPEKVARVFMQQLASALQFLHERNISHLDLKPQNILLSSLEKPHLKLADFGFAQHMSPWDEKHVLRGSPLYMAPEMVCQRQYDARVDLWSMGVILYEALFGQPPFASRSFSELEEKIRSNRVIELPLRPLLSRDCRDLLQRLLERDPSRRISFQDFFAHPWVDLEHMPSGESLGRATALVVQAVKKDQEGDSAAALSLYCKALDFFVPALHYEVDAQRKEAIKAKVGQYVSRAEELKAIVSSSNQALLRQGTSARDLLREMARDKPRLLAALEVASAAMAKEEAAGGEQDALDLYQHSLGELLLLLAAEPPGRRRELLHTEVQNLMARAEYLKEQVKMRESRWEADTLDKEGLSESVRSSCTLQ
# UniProt P07947, whole entry, looked up: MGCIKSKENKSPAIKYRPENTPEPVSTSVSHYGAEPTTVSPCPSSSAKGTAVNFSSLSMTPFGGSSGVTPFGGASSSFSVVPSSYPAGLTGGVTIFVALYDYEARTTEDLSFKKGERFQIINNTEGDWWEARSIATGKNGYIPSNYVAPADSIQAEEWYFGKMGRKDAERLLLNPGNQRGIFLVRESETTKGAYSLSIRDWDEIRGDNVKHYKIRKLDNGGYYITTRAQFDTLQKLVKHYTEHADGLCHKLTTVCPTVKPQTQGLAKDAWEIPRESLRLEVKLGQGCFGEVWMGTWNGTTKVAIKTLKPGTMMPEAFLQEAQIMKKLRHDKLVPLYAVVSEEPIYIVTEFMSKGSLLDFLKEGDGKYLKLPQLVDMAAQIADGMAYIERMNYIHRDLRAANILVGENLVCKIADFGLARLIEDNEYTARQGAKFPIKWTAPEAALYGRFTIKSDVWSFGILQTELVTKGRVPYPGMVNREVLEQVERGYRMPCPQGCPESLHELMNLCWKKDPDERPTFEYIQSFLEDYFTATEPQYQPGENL
# UniProt P43403: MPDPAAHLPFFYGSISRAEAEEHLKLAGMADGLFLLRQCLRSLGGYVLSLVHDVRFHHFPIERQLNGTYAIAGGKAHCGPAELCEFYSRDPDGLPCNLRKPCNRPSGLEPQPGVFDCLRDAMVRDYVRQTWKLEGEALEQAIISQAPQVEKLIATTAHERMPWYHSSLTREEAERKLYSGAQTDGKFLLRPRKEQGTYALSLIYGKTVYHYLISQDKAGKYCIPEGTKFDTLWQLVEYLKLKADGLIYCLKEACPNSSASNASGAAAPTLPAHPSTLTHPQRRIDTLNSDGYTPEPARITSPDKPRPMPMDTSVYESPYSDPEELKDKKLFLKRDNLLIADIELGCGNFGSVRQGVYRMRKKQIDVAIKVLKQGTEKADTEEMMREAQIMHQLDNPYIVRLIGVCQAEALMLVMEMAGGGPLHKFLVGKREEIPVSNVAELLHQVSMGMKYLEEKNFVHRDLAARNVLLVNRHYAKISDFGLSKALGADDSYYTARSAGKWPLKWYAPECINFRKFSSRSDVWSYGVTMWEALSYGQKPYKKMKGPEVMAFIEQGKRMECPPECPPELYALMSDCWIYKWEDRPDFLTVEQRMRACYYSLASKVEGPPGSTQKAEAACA
# UniProt P00519, whole entry: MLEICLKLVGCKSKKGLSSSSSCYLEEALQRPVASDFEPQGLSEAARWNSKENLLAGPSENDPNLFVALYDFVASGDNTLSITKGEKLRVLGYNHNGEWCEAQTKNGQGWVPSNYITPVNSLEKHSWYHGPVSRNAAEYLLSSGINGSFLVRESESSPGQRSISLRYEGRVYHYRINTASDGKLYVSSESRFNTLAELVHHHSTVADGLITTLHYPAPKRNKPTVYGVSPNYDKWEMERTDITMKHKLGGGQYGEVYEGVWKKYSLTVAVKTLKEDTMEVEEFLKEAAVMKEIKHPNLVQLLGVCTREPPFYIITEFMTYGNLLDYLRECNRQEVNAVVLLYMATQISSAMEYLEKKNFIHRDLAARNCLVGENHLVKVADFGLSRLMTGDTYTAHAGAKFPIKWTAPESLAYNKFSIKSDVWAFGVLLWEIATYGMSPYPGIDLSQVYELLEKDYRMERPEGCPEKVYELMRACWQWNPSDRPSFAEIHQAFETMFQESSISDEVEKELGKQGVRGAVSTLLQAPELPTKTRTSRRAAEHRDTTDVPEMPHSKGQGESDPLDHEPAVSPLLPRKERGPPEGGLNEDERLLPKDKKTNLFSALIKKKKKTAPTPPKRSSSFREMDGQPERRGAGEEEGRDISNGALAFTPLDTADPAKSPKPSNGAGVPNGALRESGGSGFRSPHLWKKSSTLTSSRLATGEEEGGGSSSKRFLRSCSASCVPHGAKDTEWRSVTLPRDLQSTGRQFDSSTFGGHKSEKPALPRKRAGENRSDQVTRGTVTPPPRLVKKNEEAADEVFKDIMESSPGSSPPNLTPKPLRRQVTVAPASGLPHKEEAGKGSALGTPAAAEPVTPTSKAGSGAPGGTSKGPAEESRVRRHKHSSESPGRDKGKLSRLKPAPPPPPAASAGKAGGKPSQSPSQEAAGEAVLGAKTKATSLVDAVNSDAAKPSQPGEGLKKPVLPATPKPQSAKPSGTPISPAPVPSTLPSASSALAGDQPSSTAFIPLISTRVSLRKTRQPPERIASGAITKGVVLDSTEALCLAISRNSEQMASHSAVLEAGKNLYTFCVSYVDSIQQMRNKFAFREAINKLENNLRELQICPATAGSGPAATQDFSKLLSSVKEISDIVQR
# UniProt P31749: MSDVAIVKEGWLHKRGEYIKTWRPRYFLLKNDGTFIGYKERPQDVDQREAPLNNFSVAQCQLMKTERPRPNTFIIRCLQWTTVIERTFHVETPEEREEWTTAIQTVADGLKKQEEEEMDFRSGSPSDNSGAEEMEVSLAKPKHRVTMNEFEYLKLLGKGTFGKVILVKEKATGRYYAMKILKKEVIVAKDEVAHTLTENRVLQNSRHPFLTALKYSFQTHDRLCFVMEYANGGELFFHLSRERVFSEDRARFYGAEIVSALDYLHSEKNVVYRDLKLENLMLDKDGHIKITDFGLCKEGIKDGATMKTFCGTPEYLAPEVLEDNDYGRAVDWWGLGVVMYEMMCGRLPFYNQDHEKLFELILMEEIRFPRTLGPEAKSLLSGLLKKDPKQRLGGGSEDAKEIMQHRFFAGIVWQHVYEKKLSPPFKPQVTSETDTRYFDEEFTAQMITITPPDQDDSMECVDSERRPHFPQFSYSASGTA
# Experiments:
# Conditions in all cases: K562; 2-18 h
# [1] = target: STK38 (UniProt Q15208); experiment: kinase-Nluc reporter destabilization hit call (1 = scored as downregulated) (binary); higher = compound decreases kinase abundance
# [2] = target: SYK (UniProt P43405); experiment: as above
# [3] = target: TEC (UniProt P42680); experiment: as above
# [4] = target: TYK2 (UniProt P29597); experiment: as above
# [5] = target: ULK3 (UniProt Q6PHR2); experiment: as above
# [6] = target: YES1 (UniProt P07947); experiment: as above
# [7] = target: ZAK (UniProt Q9NYL2); experiment: as above
# [8] = target: ZAP70 (UniProt P43403); experiment: as above
# [9] = target: ABL1 (UniProt P00519); experiment: number of time points (of 5) at which kinase-Nluc abundance scored as decreased, DMSO-normalised (count); higher = more persistent destabilization
# [10] = target: AKT1 (UniProt P31749); experiment: as above
Compound,kinase-Nluc reporter destabilization hit call [1],kinase-Nluc reporter destabilization hit call [2],kinase-Nluc reporter destabilization hit call [3],kinase-Nluc reporter destabilization hit call [4],kinase-Nluc reporter destabilization hit call [5],kinase-Nluc reporter destabilization hit call [6],kinase-Nluc reporter destabilization hit call [7],kinase-Nluc reporter destabilization hit call [8],number of time points [9],number of time points [10]
C=CC(=O)N1CCC[C@H](n2c(=O)n(-c3ccc(Oc4ccccc4)cc3)c3c(N)ncnc32)C1 [ONO-4059 (analog)] (10 µM),inactive: 0,inactive: 0,inactive: 0,inactive: 0,inactive: 0,inactive: 0,inactive: 0,inactive: 0,0,0
O=c1cc(N2CCOCC2)nc2c3ccccc3ccn12 [Compound 401] (10 µM),inactive: 0,inactive: 0,inactive: 0,inactive: 0,inactive: 0,inactive: 0,inactive: 0,inactive: 0,0,0
CC(C)S(=O)(=O)c1ccc2nccc(Nc3ccc4scnc4c3)c2c1 (10 µM),inactive: 0,inactive: 0,inactive: 0,inactive: 0,inactive: 0,inactive: 0,inactive: 0,inactive: 0,0,0
NC(=O)c1cnc2[nH]ccc2c1N[C@@H]1[C@@H]2CC3C[C@H]1C[C@@](O)(C3)C2 [Peficitinib] (10 µM),inactive: 0,inactive: 0,inactive: 0,inactive: 0,inactive: 0,inactive: 0,inactive: 0,inactive: 0,4,0
Cc1ccc(-c2csc3ncnc(SCCC(=O)O)c23)cc1 (10 µM),inactive: 0,inactive: 0,inactive: 0,inactive: 0,inactive: 0,inactive: 0,inactive: 0,inactive: 0,0,0
COc1ccc(-c2c(C)nn3c(NCCN4CCOCC4)cc(C)nc23)cc1OC (10 µM),inactive: 0,inactive: 0,inactive: 0,inactive: 0,inactive: 0,inactive: 0,inactive: 0,inactive: 0,0,0
O=C(N[C@@H](C1CC1)C(F)(F)F)c1cc(-c2cnn3cc(-c4ccc(F)cc4)cnc23)cs1 (10 µM),inactive: 0,inactive: 0,inactive: 0,inactive: 0,inactive: 0,inactive: 0,inactive: 0,inactive: 0,0,0
O=C(Nc1nc(=O)n(Cc2ccc(Cl)cc2)s1)c1ccc(Cl)cc1 (10 µM),inactive: 0,inactive: 0,inactive: 0,inactive: 0,inactive: 0,inactive: 0,inactive: 0,inactive: 0,0,0
Nc1nccc(Oc2ccc(NC(=O)c3c[nH]cc(-c4ccc(F)cc4)c3=O)cc2F)c1Cl (10 µM),inactive: 0,inactive: 0,inactive: 0,inactive: 0,active: 1,inactive: 0,inactive: 0,inactive: 0,4,0
CC(C)=CCc1c(-c2ccc(O)cc2O)oc2c3c(cc(O)c2c1=O)OC(C)(C)C=C3 [Morusin] (2.5 µM),inactive: 0,inactive: 0,inactive: 0,inactive: 0,inactive: 0,inactive: 0,inactive: 0,inactive: 0,0,0
Cc1cc(Nc2ncnc3ccc(-c4ccc(CNCCS(C)(=O)=O)o4)cc23)ccc1Oc1ccn2ncnc2c1 [ARRY-380 (analog )] (2.5 µM),inactive: 0,inactive: 0,inactive: 0,inactive: 0,inactive: 0,inactive: 0,inactive: 0,inactive: 0,0,0
O=C1O[C@H]([C@@H](O)CO)C(O)=C1OP(=O)(O)O [2-Phospho-L-ascorbic acid (trisodium)] (10 µM),inactive: 0,inactive: 0,inactive: 0,inactive: 0,inactive: 0,inactive: 0,inactive: 0,inactive: 0,0,0
c1ccc(-c2nc(=NCCN3CCOCC3)sn2-c2ccccc2)cc1 [VP3.15 (dihydrobromide)] (10 µM),inactive: 0,inactive: 0,inactive: 0,inactive: 0,inactive: 0,inactive: 0,inactive: 0,inactive: 0,0,0
Cn1cc(-c2cnc3cnn(S(=O)(=O)c4cnc5ccc(-c6cnn(C)c6)cn45)c3c2)cn1 [Glumetinib] (10 µM),inactive: 0,inactive: 0,inactive: 0,inactive: 0,inactive: 0,inactive: 0,inactive: 0,inactive: 0,0,0
CC(C)(C)n1nc(Cc2ccccc2O)c2c(N)ncnc21 (10 µM),inactive: 0,inactive: 0,inactive: 0,active: 1,inactive: 0,inactive: 0,inactive: 0,inactive: 0,0,0
O=C(O)c1cccc(CN2C(=O)/C(=C(\c3ccccc3)c3ccc(Cl)cc3)c3ccccc32)c1 (2.5 µM),inactive: 0,inactive: 0,inactive: 0,inactive: 0,inactive: 0,inactive: 0,inactive: 0,inactive: 0,0,0
CCn1c(=O)c(-c2cc[nH]n2)cc2c(C)nc(N)nc21 [Voxtalisib] (10 µM),inactive: 0,inactive: 0,inactive: 0,inactive: 0,inactive: 0,inactive: 0,inactive: 0,inactive: 0,0,0
C=CC(=O)Nc1cc(-n2c(=O)ccc3cnc4ccc(-c5ccc(NS(C)(=O)=O)cc5)cc4c32)ccc1C (10 µM),inactive: 0,inactive: 0,inactive: 0,active: 1,inactive: 0,inactive: 0,inactive: 0,inactive: 0,0,0
O=C(Nc1cccc(C(F)(F)F)c1)c1cccc2cc(Oc3cc(CO)ncn3)ccc12 (10 µM),inactive: 0,inactive: 0,inactive: 0,inactive: 0,inactive: 0,inactive: 0,inactive: 0,inactive: 0,0,0
O=C(Nc1nc2ccc(NC(=O)C34CC5CC(CC(C5)C3)C4)cc2s1)c1ccccc1 (10 µM),inactive: 0,inactive: 0,inactive: 0,inactive: 0,inactive: 0,inactive: 0,inactive: 0,inactive: 0,2,0
Cc1c(-c2ccc(C(N)=O)c3[nH]c4cc(C(C)(C)O)ccc4c23)cccc1-n1cnc2ccccc2c1=O (2.5 µM),inactive: 0,inactive: 0,inactive: 0,inactive: 0,inactive: 0,inactive: 0,inactive: 0,inactive: 0,0,0
C[C@@H]1O[C@@H](O[C@@H]2[C@@H](O)[C@H](OCCc3ccc(O)c(O)c3)O[C@H](CO)[C@H]2OC(=O)/C=C/c2ccc(O)c(O)c2)[C@H](O)[C@H](O)[C@H]1O [Verbascoside] (10 µM),inactive: 0,inactive: 0,inactive: 0,inactive: 0,inactive: 0,inactive: 0,inactive: 0,inactive: 0,0,0
O=C1/C(=C\c2ccc(Cl)cc2)C=C(c2ccccc2)N1c1ccc(O)cc1 (2.5 µM),inactive: 0,inactive: 0,inactive: 0,inactive: 0,inactive: 0,inactive: 0,inactive: 0,inactive: 0,0,0
Nc1c(C(=O)NCc2ccc(C(=O)NCCCC3CCCCC3)cc2)cnn1-c1ccccc1 (2.5 µM),inactive: 0,inactive: 0,inactive: 0,inactive: 0,inactive: 0,inactive: 0,inactive: 0,inactive: 0,0,0
COc1ccc(S(=O)(=O)NCc2ccc(C(=O)NCCc3ccc(Cl)cn3)cc2)cc1 (10 µM),inactive: 0,inactive: 0,inactive: 0,inactive: 0,inactive: 0,inactive: 0,inactive: 0,inactive: 0,0,0
C[C@@H]1CC(=O)c2c(ccc3c2C(=O)c2cccc(O)c2C3=O)C1 [Ochromycinone] (10 µM),inactive: 0,inactive: 0,inactive: 0,inactive: 0,inactive: 0,inactive: 0,inactive: 0,inactive: 0,0,0
O[C@@H]1CO[C@H]2[C@@H]1OC[C@H]2Oc1nc2nc(-c3ccc(-c4ccccc4)cc3)c(Cl)cc2[nH]1 (10 µM),inactive: 0,inactive: 0,inactive: 0,inactive: 0,inactive: 0,inactive: 0,inactive: 0,inactive: 0,0,0
CC(C)C[C@@H](C(=O)Nc1ccn(C[C@@H](O)CO)n1)N1CC(Oc2ccccc2Cl)=CC1=O [Dorzagliatin] (10 µM),inactive: 0,inactive: 0,inactive: 0,inactive: 0,inactive: 0,inactive: 0,inactive: 0,inactive: 0,0,0
COc1ccc(/C=C/C(=O)C2(C(=O)/C=C/c3ccc(OC)c(OC)c3)CCCCC2)cc1OC (2.5 µM),inactive: 0,inactive: 0,inactive: 0,inactive: 0,inactive: 0,inactive: 0,inactive: 0,inactive: 0,1,0

# Reprinted at random: 2 records from the list, in no set order.
Compound,kinase-Nluc reporter destabilization hit call [1],kinase-Nluc reporter destabilization hit call [2],kinase-Nluc reporter destabilization hit call [3],kinase-Nluc reporter destabilization hit call [4],kinase-Nluc reporter destabilization hit call [5],kinase-Nluc reporter destabilization hit call [6],kinase-Nluc reporter destabilization hit call [7],kinase-Nluc reporter destabilization hit call [8],number of time points [9],number of time points [10]
O=C(Nc1nc(=O)n(Cc2ccc(Cl)cc2)s1)c1ccc(Cl)cc1 (10 µM),inactive: 0,inactive: 0,inactive: 0,inactive: 0,inactive: 0,inactive: 0,inactive: 0,inactive: 0,0,0
C[C@@H]1CC(=O)c2c(ccc3c2C(=O)c2cccc(O)c2C3=O)C1 [Ochromycinone] (10 µM),inactive: 0,inactive: 0,inactive: 0,inactive: 0,inactive: 0,inactive: 0,inactive: 0,inactive: 0,0,0
